Results taken from patent US4000985A, “Azo dyes having a high solubility in petroleum fuels” (Morton-Norwich Products, Inc., priority 1975, dated 1977).

Test: Relative color strength and shade of dye solutions in No. 2 Heating Oil
Assay type: physicochemical
Conditions: for % Relative Strength: equal quantities of dye

SMILES: CCCCC(CC)COCCCNc1ccc2ccccc2c1N=Nc1ccc(N=Nc2ccccc2)cc1C (stereo not shown) [Example 9]
- Relative Shade: Blue Red
- % Relative Strength: 97%

SMILES: CCCCC(CC)CNc1ccc2ccccc2c1N=Nc1ccc(N=Nc2ccccc2)cc1C (stereo not shown) [Example 3]
- Relative Shade: Blue Red
- % Relative Strength: 112%

SMILES: CCCCC(CC)COCCCNc1ccc2ccccc2c1N=Nc1cc(C)c(N=Nc2ccccc2C)cc1C (stereo not shown) [Example 10]
- Relative Shade: Bluer Red
- % Relative Strength: 90%

SMILES: CCCCC(CC)COCCCNc1ccc2ccccc2c1N=Nc1ccc(N=Nc2ccccc2)cc1 (stereo not shown) [Example 8]
- Relative Shade: Yellower Red
- % Relative Strength: 103%

SMILES: CCCCC(CC)CNc1ccc2ccccc2c1N=Nc1cc(C)c(N=Nc2ccccc2C)cc1C (stereo not shown) [Example 4]
- Relative Shade: Duller Blue Red
- % Relative Strength: 92%

SMILES: CCCCC(CC)CNc1ccc2ccccc2c1N=Nc1ccc(N=Nc2ccccc2C)cc1C (stereo not shown) [Example 1]
- Relative Shade: Blue Red
- % Relative Strength: 100%

SMILES: CCCCC(CC)CNc1ccc2ccccc2c1N=Nc1ccc(N=Nc2ccccc2)cc1 (stereo not shown) [Example 2]
- Relative Shade: Blue Red
- % Relative Strength: 121%

SMILES: CCCCC(CC)COCCCNc1ccc2ccccc2c1N=Nc1ccc(N=Nc2ccccc2C)cc1C (stereo not shown) [Example 7]
- Relative Shade: Blue Red
- % Relative Strength: 100%
